Values from PubChem BioAssay AID1259425 (University of Nebraska Medical Center, 2018)
The deposit covers about 14,000 reagents; shown is an unselected part. Further read-outs or replicates are left out here. Not stated in the record: the time to read-out.

- Purpose: 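Compare each knockdown with KSR1 silencing using changes in marker transcripts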 (primary screen)
- System: HCT116 human colon cancer cells
- Reagents: siRNA pool against human genes, 50 nM siRNA
- Measured: 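After 50 nM siRNA pool, branched-DNA assay measures six marker transcripts per well, minus blank, normalised to the geometric mean of two housekeeping transcripts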
- Reading the numbers: BNIP3L mRNA: higher = more BNIP3L transcript after knockdown; NDRG1 mRNA: higher = more NDRG1 transcript after knockdown; BNIP3 mRNA: higher = more BNIP3 transcript after knockdown; ALDOC mRNA: higher = more ALDOC transcript after knockdown

| gene symbol | BNIP3L mRNA, set 1 | NDRG1 mRNA, set 1 | BNIP3 mRNA, set 1 | ALDOC mRNA, set 1 |
| --- | --- | --- | --- | --- |
| ERAP1 | 0.0521 | 0.0854 | 0.167 | 0.0143 |
| TRMT10C | 0.0487 | 0.222 | 0.275 | 0.0114 |
| SMYD5 | 0.15 | 0.215 | 0.278 | 0.0226 |
| KLHL14 | 0.0795 | 0.182 | 0.439 | 0.025 |
| OTUD6B | 0.0446 | 0.323 | 0.151 | 0.0168 |
| ZNF274 | 0.0899 | 0.612 | 0.259 | 0.00953 |
| RAP2A | 0.134 | 0.185 | 0.425 | 0.0416 |
| ITGAD | 0.167 | 0.549 | 0.468 | 0.0544 |
| USP34 | 0.0876 | 0.141 | 0.341 | 0.027 |
| CDKN2C | 0.0774 | 0.117 | 0.195 | 0.00892 |
| HEY2 | 0.098 | 0.102 | 0.308 | 0.0317 |
| TMEM243 | 0.182 | 0.237 | 0.377 | 0.038 |
| KCNK10 | 0.151 | 0.378 | 0.285 | 0.0422 |
| LRRC41 | 0.114 | 0.15 | 0.297 | 0.0334 |
| CATSPERG | 0.155 | 0.671 | 0.317 | 0.0186 |
| FLRT3 | 0.0633 | 0.147 | 0.355 | 0.0132 |
| AGR2 | 0.0632 | 0.173 | 0.353 | 0.0464 |
| PIK3C2B | 0.169 | 0.117 | 0.316 | 0.011 |
| PDE1A | 0.0742 | 0.235 | 0.278 | 0.0209 |
| CREBZF | 0.802 | 0.158 | 1.61 | -0.183 |
| SPTBN5 | 0.196 | 0.587 | 0.5 | 0.0332 |
| RASAL1 | 0.127 | 0.0859 | 0.272 | 0.00838 |
| SRSF5 | 0.0796 | 0.259 | 0.332 | 0.0268 |
| KLHL18 | 0.123 | 0.204 | 0.355 | 0.0166 |
| SPARCL1 | 0.162 | 0.14 | 0.282 | 0.00176 |
| NUMBL | 0.213 | 0.5 | 0.408 | 0.0513 |
| CCL22 | 0.0613 | 0.477 | 0.234 | 0.0429 |
| SETD3 | 0.271 | 0.391 | 0.273 | 0.0646 |
| MYL12A | 0.144 | 0.276 | 0.385 | 0.0487 |
| COBLL1 | 0.0901 | 0.0695 | 0.267 | 0.0103 |
| CCL7 | 0.124 | 0.561 | 0.447 | 0.0354 |
| NPFFR2 | 0.164 | 0.175 | 0.358 | 0.0482 |
| KRT76 | 0.122 | 0.55 | 0.209 | 0.0295 |
| OTOF | 0.179 | 0.18 | 0.419 | 0.0354 |
| CELF4 | 0.24 | 0.364 | 0.408 | 0.113 |
| METTL13 | 0.16 | 0.0982 | 0.248 | 0.031 |
| DAP3 | 0.0791 | 0.117 | 0.302 | 0.0185 |
| SOX13 | 0.0941 | 0.507 | 0.317 | 0.0223 |
| METTL26 | 0.142 | 0.33 | 0.325 | 0.118 |
| SMPD1 | 0.119 | 0.131 | 0.368 | 0.0307 |
| COPA | 0.52 | 1.36 | 0.689 | 0.0687 |
| ANAPC15 | 0.0722 | 0.0999 | 0.437 | 0.0137 |
| CLEC3B | 0.1 | -0.00245 | 0.33 | 0.0101 |
| ACCS | 0.157 | 0.0985 | 0.468 | 0.117 |
| HCN2 | 0.195 | 0.0683 | 0.209 | 0.0532 |
| ATF2 | 0.0737 | 0.15 | 0.332 | 0.0397 |
| CTBP2 | 0.0918 | 0.122 | 0.402 | 0.0303 |
| PCDHA11 | 0.112 | 0.413 | 0.339 | 0.0201 |
| POLD4 | 0.432 | 0.885 | 0.494 | 0.283 |
| KCNH3 | 0.201 | 0.084 | 0.233 | 0.00579 |
